Source: US12569566B2, “Compositions containing, methods and uses of antibody-TLR agonist conjugates” (Ambrx, Inc., priority 2019, dated 2026)

Sequences of proteins named here, by UniProt entry; tags and fusion partners are left off. Residues count along the entry.
UniProt Q9NYK1, 27-1049 limits assumed: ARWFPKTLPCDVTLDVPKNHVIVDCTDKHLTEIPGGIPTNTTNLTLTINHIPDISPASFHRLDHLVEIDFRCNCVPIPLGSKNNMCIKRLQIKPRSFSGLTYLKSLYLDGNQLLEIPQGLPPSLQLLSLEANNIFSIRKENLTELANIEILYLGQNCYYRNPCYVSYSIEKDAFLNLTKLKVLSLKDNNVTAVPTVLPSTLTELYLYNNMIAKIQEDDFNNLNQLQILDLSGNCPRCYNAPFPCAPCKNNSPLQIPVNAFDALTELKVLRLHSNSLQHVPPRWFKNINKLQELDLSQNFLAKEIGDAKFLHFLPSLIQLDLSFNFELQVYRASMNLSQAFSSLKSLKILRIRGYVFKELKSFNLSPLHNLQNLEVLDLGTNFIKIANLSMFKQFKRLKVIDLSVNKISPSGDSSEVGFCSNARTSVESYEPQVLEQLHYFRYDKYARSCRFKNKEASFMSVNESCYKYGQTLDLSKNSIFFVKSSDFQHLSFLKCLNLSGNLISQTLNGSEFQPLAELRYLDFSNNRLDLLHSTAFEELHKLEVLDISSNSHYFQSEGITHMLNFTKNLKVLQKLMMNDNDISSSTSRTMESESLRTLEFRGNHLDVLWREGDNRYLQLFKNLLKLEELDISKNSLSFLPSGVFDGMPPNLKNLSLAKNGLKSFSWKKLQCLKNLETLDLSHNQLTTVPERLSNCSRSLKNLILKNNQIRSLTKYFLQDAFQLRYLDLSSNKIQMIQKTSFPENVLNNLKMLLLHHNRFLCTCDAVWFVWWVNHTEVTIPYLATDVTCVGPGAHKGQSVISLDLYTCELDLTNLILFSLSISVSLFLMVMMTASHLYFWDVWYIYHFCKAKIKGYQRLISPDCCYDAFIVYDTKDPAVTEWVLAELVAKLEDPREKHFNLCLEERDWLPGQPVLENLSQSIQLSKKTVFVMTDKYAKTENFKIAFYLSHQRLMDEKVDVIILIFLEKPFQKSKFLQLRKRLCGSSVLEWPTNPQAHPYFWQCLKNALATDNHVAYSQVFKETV

Target: hTLR7 (Homo sapiens, UniProt Q9NYK1)
Experiment: HEK-Blue hTLR7 reporter assay (NF-kB-induced SEAP, Quanti-Blue, OD 655 nm)
Details: FIG. 4; TLR7 agonists stimulation in HEK-Blue hTLR7 reporter cell line, 24 h

EC50: 435 nM
Compound: CCCCc1nc2c(N)nc3ccccc3c2n1CCOCCNC(=O)OC(C)(C)C

The structures given here were assigned with low confidence; some may be wrong.
